Data as given in the supplement of paper PMC4604168 (melanoma cell lines).
This is one part of the list. Repeats are few or missing, and single values can be far off.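 Cells were imaged in 1,536-well plates, and nuclei stained with an antibody against cleaved PARP were counted against all DNA-stained nuclei to give the apoptosis fraction. Screening doses were chosen to leave most cells alive, and resting and induced cleaved-PARP levels differ strongly between cell lines.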

Tests used:
Test in all cases: cleaved PARP positive nuclei fraction relative to DMSO control; melanoma cells; higher = more apoptosis
Conditions in all cases: library dose: low library concentration; 72 h
CBRC034 = test system: CBRC034 (line from a melanoma biopsy)
COLO792 = test system: COLO792
COLO800 = test system: COLO800
COLO829 = test system: COLO829
G361 = test system: G361
IPC-298 = test system: IPC-298
IST-MEL1 = test system: IST-MEL1
LB2518-MEL = test system: LB2518-MEL
LOXIMVI = test system: LOXIMVI
MEL-HO = test system: MEL-HO

Compound | cleaved PARP positive nuclei fraction (CBRC034) | cleaved PARP positive nuclei fraction (COLO792) | cleaved PARP positive nuclei fraction (COLO800) | cleaved PARP positive nuclei fraction (COLO829) | cleaved PARP positive nuclei fraction (G361) | cleaved PARP positive nuclei fraction (IPC-298) | cleaved PARP positive nuclei fraction (IST-MEL1) | cleaved PARP positive nuclei fraction (LB2518-MEL) | cleaved PARP positive nuclei fraction (LOXIMVI) | cleaved PARP positive nuclei fraction (MEL-HO)
NC(=O)c1ccc(N(C(N)=O)c2c(F)cccc2F)nc1-c1ccc(F)cc1F + C#Cc1cccc(Nc2ncnc3cc(OCCOC)c(OCCOC)cc23)c1 [erlotinib] (first compound 0.4 µM, partner dose 0.8 µM) | 58.3% | 110% | 94.3% | 194% | 94.4% | 85.4% | 81.1% | 59.4% | 253% | 128%
NC1(c2ccc(-c3nc4ccn5c(=O)[nH]nc5c4cc3-c3ccccc3)cc2)CCC1 + Nc1ccn([C@@H]2O[C@H](CO)[C@@H](O)C2(F)F)c(=O)n1 [gemcitabine] (first compound 0.4 µM, partner dose 0.0004 µM) | 159% | 201% | 26.3% | 78.7% | 195% | 152% | 195% | 60.2% | 56.9% | 90.2%
COc1ccc(C2=N[C@@H](c3ccc(Cl)cc3)[C@@H](c3ccc(Cl)cc3)N2C(=O)N2CCNC(=O)C2)c(OC(C)C)c1 [Nutlin-3] + C=CCNC1=C2C[C@@H](C)C[C@H](OC)[C@H](O)[C@@H](C)/C=C(\C)[C@H](OC(N)=O)[C@@H](OC)/C=C\C=C(/C)C(=O)NC(=CC1=O)C2=O [Tanespimycin] (first compound 0.1 µM, partner dose 0.002 µM) | 64.5% | 112% | 24.5% | 129% | 122% | 81.2% | 119% | 110% | 95% | 42.1%
C[C@@H](N)c1ccc(C(=O)Nc2ccnc3[nH]ccc23)cc1 + Nc1cccc2c1CN(C1CCC(=O)NC1=O)C2=O [lenalidomide] (first compound 0.4 µM, partner dose 1 µM) | 243% | 198% | 169% | 122% | 107% | 42.6% | 215% | 122% | 272% | 91%
NC1(c2ccc(-c3nc4ccn5c(=O)[nH]nc5c4cc3-c3ccccc3)cc2)CCC1 + Cn1c(Nc2ccc(C(F)(F)F)cc2)nc2cc(Oc3ccnc(-c4ncc(C(F)(F)F)[nH]4)c3)ccc21 [CHIR265] (first compound 0.4 µM, partner dose 0.08 µM) | 83% | 265% | 152% | 121% | 109% | 194% | 106% | 187% | 165% | 123%
COc1ccc(C2=N[C@@H](c3ccc(Cl)cc3)[C@@H](c3ccc(Cl)cc3)N2C(=O)N2CCNC(=O)C2)c(OC(C)C)c1 [Nutlin-3] + CCCCCCCCc1ccc(CCC(N)(CO)CO)cc1 [fingolimod] (first compound 0.1 µM, partner dose 2 µM) | 29.4% | 107% | 205% | 123% | 133% | 124% | 59.7% | 195% | 141% | 149%
NC(=O)c1ccc(N(C(N)=O)c2c(F)cccc2F)nc1-c1ccc(F)cc1F + Nc1cccc2c1CN(C1CCC(=O)NC1=O)C2=O [lenalidomide] (first compound 0.4 µM, partner dose 1 µM) | 101% | 57.1% | 47.7% | 191% | 60.9% | 43.5% | 64.8% | 106% | 65.5% | 130%
C[C@@H](N)c1ccc(C(=O)Nc2ccnc3[nH]ccc23)cc1 + NC1(c2ccc(-c3nc4ccn5c(=O)[nH]nc5c4cc3-c3ccccc3)cc2)CCC1 [MK2206] (first compound 0.4 µM, partner dose 0.4 µM) | 121% | 203% | 39.5% | 105% | 215% | 127% | 91.7% | 294% | 182% | 55.9%
CC1(C)CCC(c2ccc(Cl)cc2)=C(CN2CCN(c3ccc(C(=O)NS(=O)(=O)c4ccc(N[C@H](CCN5CCOCC5)CSc5ccccc5)c(S(=O)(=O)C(F)(F)F)c4)cc3)CC2)C1 + NC(=O)c1ccc(N(C(N)=O)c2c(F)cccc2F)nc1-c1ccc(F)cc1F [VX702] (first compound 0.4 µM, partner dose 0.4 µM) | 120% | 416% | 49.1% | 104% | 176% | 79.7% | 449% | 136% | 1630% | 79.9%
COc1ccc(C2=N[C@@H](c3ccc(Cl)cc3)[C@@H](c3ccc(Cl)cc3)N2C(=O)N2CCNC(=O)C2)c(OC(C)C)c1 [Nutlin-3] + Cn1c(Nc2ccc(C(F)(F)F)cc2)nc2cc(Oc3ccnc(-c4ncc(C(F)(F)F)[nH]4)c3)ccc21 [CHIR265] (first compound 0.1 µM, partner dose 0.08 µM) | 80.3% | 35.2% | 122% | 83.9% | 172% | 190% | 33.6% | 675% | 167% | 240%
CN(c1ncccc1CNc1nc(Nc2ccc3c(c2)CC(=O)N3)ncc1C(F)(F)F)S(C)(=O)=O + OCc1c[nH]c2ccccc12 [Indole-3-carbinol] (first compound 0.08 µM, partner dose 0.8 µM) | 184% | 104% | 48.9% | 252% | 159% | 146% | 132% | 99.8% | 38.7% | 168%
CS(=O)(=O)c1ccc(C(=O)Nc2ccc(Cl)c(-c3ccccn3)c2)c(Cl)c1 [vismodegib] + CN1CCN(c2ccc3nc(-c4c(N)c5c(F)cccc5[nH]c4=O)[nH]c3c2)CC1 [Dovitinib] (first compound 1 µM, partner dose 0.1 µM) | 79.7% | 27.5% | 83.1% | 73.9% | 226% | 118% | 31.1% | 115% | 118% | 157%
CN(c1ncccc1CNc1nc(Nc2ccc3c(c2)CC(=O)N3)ncc1C(F)(F)F)S(C)(=O)=O + CCCS(=O)(=O)Nc1ccc(F)c(C(=O)c2c[nH]c3ncc(Cl)cc23)c1F [PLX4720] (first compound 0.08 µM, partner dose 0.08 µM) | 191% | 55.8% | 110% | 87.6% | 204% | 46.2% | 148% | 97.5% | 134% | 89.4%
CC1(C)CCC(c2ccc(Cl)cc2)=C(CN2CCN(c3ccc(C(=O)NS(=O)(=O)c4ccc(N[C@H](CCN5CCOCC5)CSc5ccccc5)c(S(=O)(=O)C(F)(F)F)c4)cc3)CC2)C1 + CC(=O)c1c(C)c2cnc(Nc3ccc(N4CCNCC4)cn3)nc2n(C2CCCC2)c1=O [palbociclib] (first compound 0.4 µM, partner dose 0.04 µM) | 159% | 458% | 176% | 139% | 81% | 149% | 111% | 140% | 228% | 162%
CS(=O)(=O)c1ccc(C(=O)Nc2ccc(Cl)c(-c3ccccn3)c2)c(Cl)c1 [vismodegib] + Cn1nnc2c(C(N)=O)ncn2c1=O [temozolomide] (first compound 1 µM, partner dose 2 µM) | 107% | 91.1% | 73.4% | 233% | 38.1% | 94.9% | 134% | 105% | 30.7% | 97.6%
NC(=O)c1ccc(N(C(N)=O)c2c(F)cccc2F)nc1-c1ccc(F)cc1F + Nc1nc(F)nc2c1ncn2[C@@H]1O[C@H](CO)[C@@H](O)[C@@H]1O [fludarabine] (first compound 0.4 µM, partner dose 0.2 µM) | 75.3% | 41.9% | 68% | 70.3% | 166% | 43.2% | 135% | 576% | 73.5% | 85.2%
CC1(C)CCC(c2ccc(Cl)cc2)=C(CN2CCN(c3ccc(C(=O)NS(=O)(=O)c4ccc(N[C@H](CCN5CCOCC5)CSc5ccccc5)c(S(=O)(=O)C(F)(F)F)c4)cc3)CC2)C1 + C=C(c1ccc(C(=O)O)cc1)c1cc2c(cc1C)C(C)(C)CCC2(C)C [Bexarotene] (first compound 0.4 µM, partner dose 2 µM) | 180% | 226% | 134% | 166% | 95.9% | 114% | 184% | 361% | 295% | 118%
CC1(C)CCC(c2ccc(Cl)cc2)=C(CN2CCN(c3ccc(C(=O)NS(=O)(=O)c4ccc(N[C@H](CCN5CCOCC5)CSc5ccccc5)c(S(=O)(=O)C(F)(F)F)c4)cc3)CC2)C1 + COc1ccc(C2=N[C@@H](c3ccc(Cl)cc3)[C@@H](c3ccc(Cl)cc3)N2C(=O)N2CCNC(=O)C2)c(OC(C)C)c1 [Nutlin-3] (first compound 0.4 µM, partner dose 0.1 µM) | 193% | 323% | 241% | 137% | 186% | 88.7% | 81.2% | 125% | 201% | 89.9%
Cn1sc(=O)n(Cc2ccccc2)c1=O + CC(C)C[C@H](NC(=O)[C@H](Cc1ccccc1)NC(=O)c1cnccn1)B(O)O [Bortezomib] (first compound 0.4 µM, partner dose 0.001 µM) | 71.5% | 65.4% | 109% | 98.2% | 178% | 62.5% | 121% | 77.6% | 150% | 41.2%
CC(=O)O[C@@]12CO[C@@H]1C[C@H](O)[C@@]1(C)C(=O)[C@H](O)C3=C(C)[C@@H](OC(=O)[C@H](O)[C@@H](NC(=O)OC(C)(C)C)c4ccccc4)C[C@@](O)([C@@H](OC(=O)c4ccccc4)[C@H]21)C3(C)C [Docetaxel] + COc1ccc(Cl)c(Nc2nc3ccccc3nc2NS(=O)(=O)c2cccc(NC(=O)C(C)(C)N)c2)c1 [XL147] (first compound 0.0001 µM, partner dose 0.8 µM) | 214% | 411% | 258% | 147% | 383% | 267% | 102% | 259% | 171% | 138%
COc1ccc(C2=N[C@@H](c3ccc(Cl)cc3)[C@@H](c3ccc(Cl)cc3)N2C(=O)N2CCNC(=O)C2)c(OC(C)C)c1 [Nutlin-3] + Cc1nc(Nc2ncc(C(=O)Nc3c(C)cccc3Cl)s2)cc(N2CCN(CCO)CC2)n1 [dasatanib] (first compound 0.1 µM, partner dose 0.004 µM) | 308% | 84.4% | 172% | 176% | 88.8% | 366% | 52.4% | 131% | 110% | 92.2%

Copied from the list.
cleaved PARP positive nuclei fraction (COLO792), COc1ccc(C2=N[C@@H](c3ccc(Cl)cc3)[C@@H](c3ccc(Cl)cc3)N2C(=O)N2CCNC(=O)C2)c(OC(C)C)c1 [Nutlin-3] + C=CCNC1=C2C[C@@H](C)C[C@H](OC)[C@H](O)[C@@H](C)/C=C(\C)[C@H](OC(N)=O)[C@@H](OC)/C=C\C=C(/C)C(=O)NC(=CC1=O)C2=O [Tanespimycin] (first compound 0.1 µM, partner dose 0.002 µM) reads 112%
cleaved PARP positive nuclei fraction (MEL-HO), Cn1sc(=O)n(Cc2ccccc2)c1=O + CC(C)C[C@H](NC(=O)[C@H](Cc1ccccc1)NC(=O)c1cnccn1)B(O)O [Bortezomib] (first compound 0.4 µM, partner dose 0.001 µM) reads 41.2%
